# Assay results reported in paper PMC6884552, “Glycogen branching enzyme controls cellular iron homeostasis via Iron Regulatory Protein 1 and mitoNEET” (Nature Communications, 2019).
# The chains behind the UniProt entries cited, without tags or fusion partners. Where a name states a change or a piece, a line headed by the entry shows the natural chain unless it says otherwise.
# UniProt Q9VGZ3: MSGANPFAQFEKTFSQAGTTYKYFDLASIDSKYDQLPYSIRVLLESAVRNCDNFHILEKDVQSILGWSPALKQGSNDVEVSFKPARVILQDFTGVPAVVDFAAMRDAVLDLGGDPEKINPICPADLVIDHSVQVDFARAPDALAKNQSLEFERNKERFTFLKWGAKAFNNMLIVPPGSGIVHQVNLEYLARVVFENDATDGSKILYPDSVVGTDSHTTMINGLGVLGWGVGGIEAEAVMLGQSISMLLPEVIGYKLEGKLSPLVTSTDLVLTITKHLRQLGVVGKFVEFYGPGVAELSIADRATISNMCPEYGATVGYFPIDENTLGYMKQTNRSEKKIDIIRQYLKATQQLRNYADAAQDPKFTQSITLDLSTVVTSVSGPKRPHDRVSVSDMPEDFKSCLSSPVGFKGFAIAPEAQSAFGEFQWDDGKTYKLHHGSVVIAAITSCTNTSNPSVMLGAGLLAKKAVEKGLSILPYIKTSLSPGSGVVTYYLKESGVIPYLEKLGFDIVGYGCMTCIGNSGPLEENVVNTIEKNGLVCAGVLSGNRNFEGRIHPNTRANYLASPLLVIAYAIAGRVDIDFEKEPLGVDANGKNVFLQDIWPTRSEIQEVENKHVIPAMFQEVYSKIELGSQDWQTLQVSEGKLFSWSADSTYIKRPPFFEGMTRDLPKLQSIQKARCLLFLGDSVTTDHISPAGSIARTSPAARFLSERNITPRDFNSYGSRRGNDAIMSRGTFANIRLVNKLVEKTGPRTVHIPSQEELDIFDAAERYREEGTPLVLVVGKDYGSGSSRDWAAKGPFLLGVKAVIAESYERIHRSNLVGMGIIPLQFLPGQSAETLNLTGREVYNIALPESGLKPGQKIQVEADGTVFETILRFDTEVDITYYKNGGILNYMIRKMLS
# B1: HA-tagged Drosophila Cisd2 (natural protein, UniProt Q9VAM6 1-133, looked up)
# chain: MEPISHLVKSSLPNYLSSLPVPDSIGGWFKLSFKDWLALIPPTVVVAGLGYTAYLAYCPAARASCAAKNSGRCNNHIRKNEPKVVDMIDVEDIAEKAAFCRCWKTKNWPYCDGSHGEHNKQTGDNVGPIVIKK
# notes: Drosophila Cisd2, cDNA RE49709; also called mitoNEET; Cisd2/mitoNEET; source: S2 cells, transfected, in lysate
# Key:
# Experiment in all cases: affinity purification with mass spectrometry; samples from four fly strains expressing Flag-tagged transgenes IRP1A^C450S, IRP1B^C447S, IRP1A^3R3Q or IRP1B^3R3Q; anti-Flag immunoprecipitation; tissue per sample in Supplementary Table 2
# [1] = target: T1, transgenic Flag-tagged Drosophila IRP1A C450S expressed in flies (Drosophila) (UniProt Q9VCV4)
# T1 sequence: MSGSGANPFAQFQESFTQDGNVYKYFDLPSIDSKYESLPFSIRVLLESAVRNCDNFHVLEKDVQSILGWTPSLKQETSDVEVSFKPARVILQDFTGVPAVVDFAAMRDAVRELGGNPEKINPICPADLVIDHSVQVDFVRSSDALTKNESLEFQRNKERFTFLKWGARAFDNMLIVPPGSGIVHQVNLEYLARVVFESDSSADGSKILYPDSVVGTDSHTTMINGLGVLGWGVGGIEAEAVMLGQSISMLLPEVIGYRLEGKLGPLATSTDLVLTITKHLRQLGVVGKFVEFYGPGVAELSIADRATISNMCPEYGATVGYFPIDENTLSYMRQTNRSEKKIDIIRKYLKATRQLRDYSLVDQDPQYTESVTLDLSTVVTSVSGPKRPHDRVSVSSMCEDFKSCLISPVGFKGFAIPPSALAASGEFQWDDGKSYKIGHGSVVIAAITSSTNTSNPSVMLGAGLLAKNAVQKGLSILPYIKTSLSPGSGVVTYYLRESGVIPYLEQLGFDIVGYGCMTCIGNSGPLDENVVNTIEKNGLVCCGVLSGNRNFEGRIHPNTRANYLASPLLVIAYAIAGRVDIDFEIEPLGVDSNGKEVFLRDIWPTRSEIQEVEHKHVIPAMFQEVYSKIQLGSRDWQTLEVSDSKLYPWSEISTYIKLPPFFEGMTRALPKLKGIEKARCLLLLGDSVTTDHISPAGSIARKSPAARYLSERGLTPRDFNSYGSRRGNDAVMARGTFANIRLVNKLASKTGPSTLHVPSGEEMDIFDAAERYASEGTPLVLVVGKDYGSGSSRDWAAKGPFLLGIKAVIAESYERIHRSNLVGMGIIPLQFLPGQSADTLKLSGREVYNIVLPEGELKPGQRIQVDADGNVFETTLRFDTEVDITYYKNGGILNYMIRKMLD
# [2] = target: T2, transgenic Flag-tagged Drosophila IRP1A 3R3Q expressed in flies (Drosophila) (UniProt Q9VCV4)
# T2 sequence: T1 sequence with S450C, R549Q, R554Q, R793Q
# [3] = target: transgenic Flag-tagged Drosophila IRP1B 3R3Q expressed in flies (Drosophila) (UniProt Q9VGZ3)
binder,measurement,setting,value
B1,binding,[1],binds
same,binding,[2],binds
same,binding,[3],no binding

# Positions count from the first letter of the chain named. Results are given in words; binding and its absence hold for the method and conditions named. Binding seen in cells or lysates may run through a third protein. A yes stands for co-enrichment or nearness to the bait. Other partners may have been found. For part of these data: No binding means not detected with the bait. For part of these data: Tags and fused reporters may be left off the sequences shown.
